Test results published in PubChem BioAssay AID1347076 (National Center for Advancing Translational Sciences (NCATS), 2019).
About 13,000 (3.2%) of roughly 400,000 compounds were called active. The inconclusive results got no clear call from the source; some entries with a clear call stand among them for comparison. Calls follow the shape of the dose curve; as a rule, active = well fitted cell-killing curve with a large enough effect; inconclusive = small, poorly fitted or top-dose-only effect, or effect the other way; inactive = flat fitted curve, though single readings scatter. Where the call is inconclusive, the potency comes from a doubtful curve fit.
Potency is read from the fitted curve at half-maximal effect.

Experiment: qHTS assay for MDR1-selective chemotherapeutics: Primary screen using the drug-selected MDR subline cells KB-V1; also: nearly all actives have a fitted effect of over 60% in size
Details: KB-V1 MDR cells viability, CellTiter-Glo, 72 h; series mostly up to 46.1 µM
Procedure, shortened: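 qHTS viability screen in drug-selected KB-V1 MDR cells: 72 h compound treatment at 37 degrees C, ATP luminescence end point.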
In the case of `O=C(Nc1ccc([N+](=O)[O-])cc1)OC1CCS(=O)(=O)C1` (stereo not drawn), the Potency is reported as “inactive”.
For `Cc1cccc(C(=O)N=C2SC3CS(=O)(=O)CC3N2c2ccccc2)c1` (stereo not drawn), the Potency was “inactive”.
With `Cn1c(=O)oc2cc(S(=O)(=O)Nc3ccc(Cl)cc3)ccc21` the Potency was inconclusive: 20.6 µM [cytotoxic, single point].
In the case of `COc1ccc(C2c3[nH]c4ccccc4c3CCN2C(=O)c2ccc(=O)n(C)n2)c(F)c1` (stereo not drawn), the Potency is reported as “inactive”.
For `O=C(Nc1ccccc1Cl)c1ccc(=O)[nH]n1`, the Potency was active: 8.2 µM.
With `Cc1cc(C)cc(COc2ccc3c(C)c(CC(=O)O)c(=O)oc3c2C)c1` the Potency was inconclusive: 6.51 µM [rising, full curve].
For `COc1ccc(C(C)=O)cc1CSc1nnc(Nc2ccc(C)cc2C)s1`, the Potency was inconclusive: 10.3 µM [cytotoxic, partial curve].
In the case of `O=C(C1CC1)N1CCc2cc(S(=O)(=O)NC3CCN(Cc4ccccc4)CC3)ccc21`, the Potency is reported as inconclusive: 29.1 µM [cytotoxic, single point].
With `Cn1cccc1C(=O)NC(=O)COC(=O)CNC(=O)CNC(=O)c1ccc(Cl)cc1Cl` the Potency was “inactive”.
With `COc1ccc(CCN2CCCn3c2nc2c3c(=O)n(CC(N)=O)c(=O)n2C)cc1OC` the Potency was “inactive”.
For `CN1OC[C@@H]2CN(S(=O)(=O)c3ccccc3)[C@H](c3ccc(N4CCCCC4)cc3)C[C@@H]21`, the Potency was “inactive”.
With `COC(=O)C1=C(C)N(Cc2ccccc2)C(=NCc2ccc(OC)cc2)N[C@H]1c1ccccc1` the Potency was inconclusive: 29.1 µM [rising, single point].
In the case of `COc1ccc(-c2nn(-c3ccccc3)cc2C(=O)O)cc1OC`, the Potency is reported as “inactive”.
In the case of `O=C(COC(=O)c1cc(S(=O)(=O)N2CCOCC2)ccc1F)c1ccc[nH]1`, the Potency is reported as inconclusive: 13 µM [rising, partial curve, poor fit].
For `Oc1ccc2ccccc2c1/C=N/n1cnnc1`, the Potency was inconclusive: 15.8 µM [cytotoxic, single point].
With `Nc1nc(SCCO)[nH]c(=O)c1NC(=O)c1ccco1` the Potency was inconclusive: 23.1 µM [rising, partial curve, poor fit].
For `Cc1ccc(/C=C/C(=O)Nc2cccc3cccnc23)o1`, the Potency was inconclusive: 23.1 µM [cytotoxic, single point].
With `CCOC(=O)c1cc(-c2ccc(C)cc2)n(CC(=O)Nc2ccc(OC)cc2OC)c1C` the Potency was inconclusive: 29.1 µM [cytotoxic, single point].
With `O=C(CN1CCN(S(=O)(=O)c2ccc(Cl)cc2)CC1)NC1CCCC1` the Potency was inconclusive: 20.6 µM [cytotoxic, single point].
With `C=CCNC(=S)NC(CC(=O)OC)c1ccc2c(c1)OCO2` (stereo not drawn) the Potency was inconclusive: 25.9 µM [rising, single point].
With `CCN1CCN(C(c2ccc(F)cc2)c2sc3nc(-c4ccco4)nn3c2O)CC1` (stereo not drawn) the Potency was “inactive”.
For `CC(C)N1CCN(Cc2cccs2)CC1CCO` (stereo not drawn), the Potency was inconclusive: 29.1 µM [rising, single point].
In the case of `CN(C)CC(O)CN1C(=O)N(CN2C(=O)N(CC(O)CN(C)C)C(=O)C2(C)C)C(C)(C)C1=O` (stereo not drawn), the Potency is reported as “inactive”.
For `CC(=O)N1CCCC1c1nc2ccccc2n1Cc1ccccc1F` (stereo not drawn), the Potency was “inactive”.
For `CCc1ccc2oc(-c3cc(NC(=O)COc4ccc(C)cc4)ccc3O)nc2c1`, the Potency was inconclusive: 29.1 µM [rising, single point].
In the case of `CCC(C)NC(=O)c1cnn(-c2cccc(F)c2)c1-n1cccc1` (stereo not drawn), the Potency is reported as inconclusive: 18.4 µM [cytotoxic, partial curve, poor fit].
With `CC(=O)n1cc(N(C(=O)CCl)c2ccc(Cl)cc2)c2ccccc21` the Potency was inconclusive: 16.4 µM [cytotoxic, single point].
For `CCOC(=O)N1CC=C2C(C#N)=C(N)C(C#N)(C#N)[C@H](c3ccsc3)[C@H]2C1`, the Potency was active: 14.6 µM.
For `CCc1nc2c(OCc3ccc(F)cc3)cccn2c1N(C)C(=O)COc1ccccc1`, the Potency was active: 6.51 µM.
For `COCCN1C(=O)C(=O)/C(=C(/O)c2cccc(OC)c2)C1c1ccncc1` (stereo not drawn), the Potency was inconclusive: 23.1 µM [rising, single point].
In the case of `O=C(c1ccccn1)N(Cc1ccco1)C1(C(=O)NC2CCCCC2)CCCCC1`, the Potency is reported as active: 9.2 µM.
In the case of `CC(=O)C[C@@H](O)CC(=O)[C@H]1OC(=O)CCCCCc2ccccc21`, the Potency is reported as inconclusive: 29.1 µM [rising, single point].
In the case of `COc1ccc(NC(=O)C2CCCN(S(=O)(=O)c3ccc4c(c3)oc(=O)n4C)C2)cc1OC` (stereo not drawn), the Potency is reported as “inactive”.
In the case of `O=C(CCNC(=O)c1ccc(Br)cc1)Nc1ccccc1N1CCOCC1`, the Potency is reported as inconclusive: 8.2 µM [cytotoxic, partial curve].
With `CSc1ccc(/C=C/C(=O)c2ccc(NC(=O)Cc3ccccc3)cc2)cc1` the Potency was inconclusive: 18.4 µM [cytotoxic, single point].
In the case of `CCOc1ccc(NC(=O)CSc2nc3cccnc3n2CCOC)cc1`, the Potency is reported as inconclusive: 29.1 µM [cytotoxic, single point].
With `CCOc1ccc(C(C)NC(=O)Cc2ccccc2F)cc1OCC` (stereo not drawn) the Potency was inconclusive: 13 µM [cytotoxic, single point].
In the case of `COc1ccc(NC(=O)Cc2ccccc2F)cc1S(=O)(=O)N1CCCCC1`, the Potency is reported as inconclusive: 20.6 µM [cytotoxic, partial curve, poor fit].
For `C/C(=N\Nc1nc(C)cc(-c2ccccc2)n1)c1ccc(O)cc1`, the Potency was inconclusive: 18.4 µM [cytotoxic, single point].
For `CC(C)CCn1c(CN2CCN(Cc3ccccc3)CC2)nc2c1c(=O)n(C)c(=O)n2C`, the Potency was inconclusive: 29.1 µM [cytotoxic, single point].
In the case of `O=C1CCC/C(=N\NC(=O)c2ccc(CSc3cccc4cccnc34)cc2)C1`, the Potency is reported as “inactive”.
For `COCc1cc(=O)[nH]c(SCC(=O)N2CCOCC2)n1`, the Potency was inconclusive: 2.06 µM [rising, partial curve, poor fit].
For `Clc1ccc(-n2cccc2)cn1`, the Potency was “inactive”.
With `N#Cc1c(-c2ccccc2)cc2nc3ccccc3n2c1N` the Potency was “inactive”.
With `COc1cc(NC(=O)c2cccc(C)c2)ccc1NC(=O)c1cc2ccccc2o1` the Potency was “inactive”.
With `O=C1NCCN1c1ncc([N+](=O)[O-])s1` the Potency was “inactive”.
With `CCCCNC(=O)[C@@H]1CCCN1S(=O)(=O)c1cccc2cccnc12` the Potency was inconclusive: 29.1 µM [rising, single point].
With `CN(C)S(=O)(=O)c1cccc(NC(=O)c2ccc(N3CCOCC3)c([N+](=O)[O-])c2)c1` the Potency was “inactive”.
In the case of `O=C(CCNS(=O)(=O)c1ccccc1)NNC(=O)COc1ccc(Cl)cc1`, the Potency is reported as inconclusive: 29.1 µM [rising, single point].
With `O=S(=O)(Nc1ccc(-c2ccc(NS(=O)(=O)c3ccccc3)cc2)cc1)c1ccccc1` the Potency was inconclusive: 18.4 µM [cytotoxic, single point].
In the case of `COc1ccccc1NS(=O)(=O)c1ccc(NC(=O)Cc2cccs2)cc1`, the Potency is reported as active: 20.6 µM.
For `COc1ccccc1N1CCN(C(=O)CNS(=O)(=O)c2ccc(Br)s2)CC1`, the Potency was inconclusive: 11.6 µM [cytotoxic, partial curve].
With `CCSc1ccccc1C(=O)NCc1cccnc1` the Potency was inconclusive: 0.0065 µM [rising, full curve, poor fit].
In the case of `Cc1cc(N=NC(=O)c2ccccc2)ccc1O`, the Potency is reported as inconclusive: 29.1 µM [rising, single point].
For `O=C(N/N=C/c1ccncc1)c1nn(Cc2ccccc2)c(=O)c2ccccc12`, the Potency was inconclusive: 23.1 µM [cytotoxic, single point].
With `CCc1ccccc1NC(=O)c1onc(C)c1Cl` the Potency was inconclusive: 29.1 µM [rising, single point].
For `O=C(CCCc1nc(-c2ccccc2)no1)NC1CCCCC1`, the Potency was “inactive”.
For `Cc1cc(OCC(=O)NCCCn2ccnc2)c2c(C)cc(=O)oc2c1`, the Potency was inconclusive: 16.4 µM [rising, single point].
With `COc1ccc(-c2cc(C(=O)NCCc3ccccc3)c3c(-c4ccc(Cl)cc4)[nH]nc3n2)cc1` the Potency was active: 23.1 µM.
With `CC(C)c1ccccc1NC(=O)Cn1cnc2c1c(=O)n(C)c(=O)n2C` the Potency was “inactive”.
With `O=C(O)CCC(=O)Nc1ccc(SSc2ccc(NC(=O)CCC(=O)O)cc2)cc1` the Potency was “inactive”.
For `Cc1cccc(NC(=O)Cc2noc3ccccc23)c1C`, the Potency was inconclusive: 29.1 µM [cytotoxic, single point].
For `CC(C)C[C@H]1CN=C(N(C)C)N1CC(C)C`, the Potency was inconclusive: 1.3 µM [rising, full curve].
In the case of `COc1ccc(NC(=S)NNC(=O)c2ccc(S(=O)(=O)N3CCOCC3)cc2)cc1`, the Potency is reported as inconclusive: 7.31 µM [rising, partial curve, poor fit].
In the case of `COC(=O)Nc1nnc(/C=C/c2ccccc2)s1`, the Potency is reported as inconclusive: 25.9 µM [rising, single point].
With `O=C(Cn1c(=O)n(Cc2ccc(C(=O)NCc3ccc4c(c3)OCO4)cc2)c(=O)c2ccccc21)Nc1ccccc1F` the Potency was inconclusive: 13 µM [rising, partial curve, poor fit].
For `Cc1cc(C)c2cc(C#N)c(SCC(=O)NCc3ccco3)nc2c1`, the Potency was inconclusive: 29.1 µM [cytotoxic, single point].
For `COc1ccc(C(=O)c2ccccc2)cc1`, the Potency was “inactive”.
For `CCCCn1nnnc1C(c1cc2ccccc2o1)N1CCN(C/C=C/c2ccccc2)CC1` (stereo not drawn), the Potency was inconclusive: 29.1 µM [cytotoxic, single point].
With `Cn1cc(C(=O)Nc2ccccn2)c(=O)c2ccccc21` the Potency was “inactive”.
In the case of `CSc1ncccc1C(=O)Nc1ccccc1N1CCOCC1`, the Potency is reported as active: 20.6 µM.
With `Cc1ccc(S(=O)(=O)N2CCCCC2)cc1NC(=O)COc1ccccc1F` the Potency was “inactive”.
With `CCOC(=O)c1c(NC(=O)CN2C(=O)NC3(CCCCCC3)C2=O)sc(C)c1-c1ccc(C)cc1` the Potency was inconclusive: 9.2 µM [cytotoxic, partial curve].
